PubChem BioAssay AID1259405 – NCATS – 2018
This is one part, drawn at random, of about 50,000 deposited reagents. In the full data, about 4,000 (8%) are marked active. 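Mouse siRNA library applied to hamster cells; one well for each siRNA.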 Reagents against one gene are numbered here.

Aim: 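Mouse-designed siRNAs used to find CHO productivity engineering targets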 (primary screen)
Cell system: Chinese hamster CHO-K1 ovary cells with stable secreted eGFP expression
Knock-down reagent: single siRNA against mouse genes, 0.8 pmol siRNA per well (2 µl of 400 nM stock)
Duration: 3 days
Detection: 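Percent of the per-plate non-targeting control median for intracellular GFP per well by laser scanning cytometry and for cell viability by ATP luminescence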
Reading the numbers: GFP, % of control: higher = more GFP per well, higher productivity; viability (ATP), % of control: higher = more viable cells (more ATP)
Active means: 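Called active when intracellular GFP, relative to negative control, is at or above 120%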

Plxna4 (plexin A4) #1 | GFP, % of control = 116; viability (ATP), % of control = 99.6; activity call = inactive
Plxna4 (plexin A4) #2 | GFP, % of control = 95.5; viability (ATP), % of control = 82.4; activity call = inactive
Plxna4 (plexin A4) #3 | GFP, % of control = 62.2; viability (ATP), % of control = 44.8; activity call = inactive
Chrdl1 (chordin-like 1) #1 | GFP, % of control = 72.7; viability (ATP), % of control = 55.8; activity call = inactive
Chrdl1 (chordin-like 1) #2 | GFP, % of control = 33.8; viability (ATP), % of control = 44.5; activity call = inactive
Chrdl1 (chordin-like 1) #3 | GFP, % of control = 62.8; viability (ATP), % of control = 60.4; activity call = inactive
Tead1 (TEA domain family member 1) #1 | GFP, % of control = 146; viability (ATP), % of control = 92.8; activity call = active
Tead1 (TEA domain family member 1) #2 | GFP, % of control = 81.6; viability (ATP), % of control = 78.6; activity call = inactive
Tead1 (TEA domain family member 1) #3 | GFP, % of control = 101; viability (ATP), % of control = 112; activity call = inactive
Rcbtb1 #1 | GFP, % of control = 101; viability (ATP), % of control = 81.1; activity call = inactive
Rcbtb1 #2 | GFP, % of control = 93.2; viability (ATP), % of control = 85.7; activity call = inactive
Rcbtb1 #3 | GFP, % of control = 50.7; viability (ATP), % of control = 68; activity call = inactive
Gcdh (glutaryl-Coenzyme A dehydrogenase) #1 | GFP, % of control = 142; viability (ATP), % of control = 105; activity call = active
Gcdh (glutaryl-Coenzyme A dehydrogenase) #2 | GFP, % of control = 127; viability (ATP), % of control = 93.2; activity call = active
Xlr3a (X-linked lymphocyte-regulated 3A) #1 | GFP, % of control = 49.1; viability (ATP), % of control = 51.4; activity call = inactive
Xlr3a (X-linked lymphocyte-regulated 3A) #2 | GFP, % of control = 76.1; viability (ATP), % of control = 92.5; activity call = inactive
Xlr3a (X-linked lymphocyte-regulated 3A) #3 | GFP, % of control = 82.1; viability (ATP), % of control = 109; activity call = inactive
Rpl7 (ribosomal protein L7) #1 | GFP, % of control = 38.3; viability (ATP), % of control = 33.8; activity call = inactive
Rpl7 (ribosomal protein L7) #2 | GFP, % of control = 83.6; viability (ATP), % of control = 69.2; activity call = inactive
Rpl7 (ribosomal protein L7) #3 | GFP, % of control = 38.3; viability (ATP), % of control = 27.4; activity call = inactive

Taken from above.
Under “viability (ATP), % of control”, Rcbtb1 #1 has 81.1
Value for Rpl7 (ribosomal protein L7) #1 under “GFP, % of control”: 38.3
For “GFP, % of control”, Tead1 (TEA domain family member 1) #1 reads 146

The list goes on:
Rwdd2b (RWD domain containing 2B) #1 | GFP, % of control = 43; viability (ATP), % of control = 64.7; activity call = inactive
Rwdd2b (RWD domain containing 2B) #2 | GFP, % of control = 75.6; viability (ATP), % of control = 77.3; activity call = inactive
Rwdd2b (RWD domain containing 2B) #3 | GFP, % of control = 58; viability (ATP), % of control = 65.8; activity call = inactive
Tnfrsf4 (tumor necrosis factor receptor superfamily, member 4) #1 | GFP, % of control = 67.2; viability (ATP), % of control = 78.7; activity call = inactive
Tnfrsf4 (tumor necrosis factor receptor superfamily, member 4) #2 | GFP, % of control = 61.5; viability (ATP), % of control = 71.5; activity call = inactive
Tnfrsf4 (tumor necrosis factor receptor superfamily, member 4) #3 | GFP, % of control = 66.1; viability (ATP), % of control = 57; activity call = inactive
Riox2 (ribosomal oxygenase 2) #1 | GFP, % of control = 77.7; viability (ATP), % of control = 58.7; activity call = inactive
Riox2 (ribosomal oxygenase 2) #2 | GFP, % of control = 44.3; viability (ATP), % of control = 50.9; activity call = inactive
Riox2 (ribosomal oxygenase 2) #3 | GFP, % of control = 58.2; viability (ATP), % of control = 57.9; activity call = inactive
Krt18 (keratin 18) #1 | GFP, % of control = 75.6; viability (ATP), % of control = 57.3; activity call = inactive
Krt18 (keratin 18) #2 | GFP, % of control = 76.8; viability (ATP), % of control = 72.9; activity call = inactive
Krt18 (keratin 18) #3 | GFP, % of control = 91; viability (ATP), % of control = 79.8; activity call = inactive
Sec24d (SEC24 homolog D, COPII coat complex component) #1 | GFP, % of control = 35.9; viability (ATP), % of control = 67.2; activity call = inactive
Sec24d (SEC24 homolog D, COPII coat complex component) #2 | GFP, % of control = 50.8; viability (ATP), % of control = 63.2; activity call = inactive
Cpa5 (carboxypeptidase A5) #1 | GFP, % of control = 77.9; viability (ATP), % of control = 92.4; activity call = inactive
Cpa5 (carboxypeptidase A5) #2 | GFP, % of control = 41.9; viability (ATP), % of control = 43.1; activity call = inactive
Cpa5 (carboxypeptidase A5) #3 | GFP, % of control = 51.6; viability (ATP), % of control = 66.2; activity call = inactive
Peli1 (pellino 1) #1 | GFP, % of control = 84.8; viability (ATP), % of control = 63.8; activity call = inactive
Peli1 (pellino 1) #2 | GFP, % of control = 142; viability (ATP), % of control = 66.2; activity call = active
Peli1 (pellino 1) #3 | GFP, % of control = 88; viability (ATP), % of control = 77.4; activity call = inactive
